Some of the results follow. These are further read-outs of the screen, such as a control signal, another cell line or another target. No call is given for them. The list favours compounds with an active or inconclusive main result. Potencies come from curve fits of mixed quality, noted in brackets.
Assay: qHTS Assay for Lipid Storage Modulators in Drosophila S3 Cells;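 for cell number change: cells counted by Cell Tracker Red CMTPX staining in the red channel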
Details: BODIPY lipid droplet fluorescence, 18-24 h; for cell number change: measured here: cell count max response, cells fed with added oleic acid
In short: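 Drosophila S3 cells loaded with oleic acid (400 uM, as added) and compounds at several concentrations; lipid droplets imaged by 488-nm laser-scanning cytometry, 500–530 nm intensity and object ratio to cell channel. Percent activity normalized to 20 uM Triacsin C.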

[1] = measured here: cell number channel AC50, cells fed with added oleic acid
[2] = measured here: lipid fluorescence (Fed channel) AC50, cells fed with added oleic acid

| Compound | cell number change [%] | AC50 [1] | AC50 [2] |
| --- | --- | --- | --- |
| Cc1ccc(C2(C)NC(=O)N(CC(=O)NC(=O)NC(C)C)C2=O)cc1 (configuration not stated) | 33.3 | 29.1 µM [rising, single point] | – |
| CC(C)S(=O)(=O)c1csc(NC(=O)Nc2cc(Cl)ccc2Cl)c1Cl | -51.5 | 1.46 µM [falling, partial curve] | 29.1 µM [falling, single point] |
| COC(=O)c1ccc(COC(=O)C(NC(=O)Cc2ccccc2)C(C)C)cc1 (configuration not stated) | 43.5 | 29.1 µM [rising, single point] | – |
| CCN(CC)S(=O)(=O)c1ccc(C(=O)NCCN(C)C)cc1 | – | 6.51 µM [falling, single point] | – |
| CCOc1ccc(C(=O)Nc2nnn(CC)n2)cc1 | 2.68 | – | 0.082 µM [falling, full curve, poor fit] |
| O=C(O)c1ccccc1NC(=S)NC(NC(=O)c1ccccc1[N+](=O)[O-])C(Cl)(Cl)Cl (configuration not stated) | -25 | 0.326 µM [falling, full curve, poor fit] | – |
| CN(c1ccccc1)S(=O)(=O)c1ccc(Cl)c(C(=O)Nc2nn[nH]n2)c1 | -67.6 | 8.2 µM [falling, partial curve] | – |
| CCOc1ccc(NC(=O)CN2CCN(CC(=O)Nc3ccc(C(=O)OC)cc3)CC2)cc1 | 62.2 | – | 16.4 µM [rising, partial curve] |
| COCCCNc1nc2c(c(=O)n(Cc3ccc(Cl)cc3)c(=O)n2C)n1C | -25 | – | 7.31 µM [falling, partial curve] |
| CN(C)CCCOc1ccc(C(C)(C)c2ccccc2)cc1 | -45.9 | 0.731 µM [falling, full curve, poor fit] | 0.731 µM [falling, full curve] |
| COc1cccc(CNc2ccc(S(N)(=O)=O)cc2)c1OC | -9.64 | 0.184 µM [falling, partial curve, poor fit] | 0.0206 µM [falling, full curve] |
| CN1CCN(C(=O)c2ccc3c(c2)NC(=O)C(C)(C)O3)CC1 | -41.4 | 1.03 µM [falling, full curve] | 1.3 µM [falling, full curve] |
| COc1ccc(CNc2nc3ccc(C)cc3s2)c(OC)c1OC | -23.8 | – | 29.1 µM [falling, single point] |
| Cc1ccc(C)c(S(=O)(=O)NC(C)C(=O)NCc2ccccn2)c1 (configuration not stated) | -7.33 | – | 0.58 µM [falling, single point] |
| O=C(O)Cn1ccc2cc(S(=O)(=O)N3CCCCCC3)ccc21 | 6.46 | 0.58 µM [rising, single point] | – |
| CC1=C(C#N)C(=O)NC(=O)/C1=C\c1ccc(-c2ccc(C)cc2[N+](=O)[O-])o1 | 25.1 | 6.51 µM [rising, single point] | – |
| CCC(c1nnnn1CCOC)N1CCN(Cc2ccccc2OC)CC1 (configuration not stated) | 16.7 | – | – |
| Cc1ccc(C(=O)CCC(=O)NNC(=O)c2ccccc2O)cc1 | -16.3 | – | – |
| CCOCC(=O)Nc1cccc(SC)c1 | 6.55 | – | – |
| Cc1ccc(C(C)C)c(OCC(=O)Nc2ccc(Cl)cn2)c1 | -47.7 | 29.1 µM [falling, single point] | – |
| NS(=O)(=O)c1ccc(-c2ccc(/C=C3\SC(=S)N(C4CCS(=O)(=O)C4)C3=O)o2)cc1 (configuration not stated) | -17.1 | – | – |

2 records picked at random from those above, as already listed:

| Compound | cell number change [%] | AC50 [1] | AC50 [2] |
| --- | --- | --- | --- |
| CC(C)S(=O)(=O)c1csc(NC(=O)Nc2cc(Cl)ccc2Cl)c1Cl | -51.5 | 1.46 µM [falling, partial curve] | 29.1 µM [falling, single point] |
| CCC(c1nnnn1CCOC)N1CCN(Cc2ccccc2OC)CC1 (configuration not stated) | 16.7 | – | – |

Next part:

| Compound | cell number change [%] | AC50 [1] | AC50 [2] |
| --- | --- | --- | --- |
| COc1ccc(OC)c(S(=O)(=O)N2CCC(C(=O)NC3CCCCC3)CC2)c1 | 4.62 | – | 29.1 µM [rising, single point] |
| O=C(Nc1cccc(Cl)c1)ON=C1c2ccccc2-c2ccccc21 | -29.3 | 0.651 µM [rising, full curve] | 25.9 µM [falling, partial curve, poor fit] |
| CCN(CC(=O)Nc1c(F)cccc1F)C(=O)CCCc1nc2ccccc2c(=O)[nH]1 | -5.05 | – | 29.1 µM [rising, single point] |
| O=C(NCCOC(=O)c1ccc(Cl)cc1)c1cccnc1 | 12.2 | – | 11.6 µM [rising, single point] |
| Clc1ccc(-c2nn3c(-c4ccncc4)nnc3s2)c(Cl)c1 | -4.91 | – | 0.00517 µM [rising, full curve, poor fit] |
| O=C(NCC(=O)N1CCN(c2ccccc2O)CC1)c1ccc(Br)o1 | 31 | 11.6 µM [rising, single point] | 23.1 µM [rising, partial curve, poor fit] |
| Nc1nnc(CCOc2ccc(Cl)cc2)s1 | 27.9 | – | – |
| COc1cc(/C=N/Nc2ccc(C(F)(F)F)cn2)ccc1O | -2.28 | – | – |
| CCCC(=O)Nc1ccc2oc(-c3ccncc3)nc2c1 | -39.2 | 29.1 µM [falling, single point] | 0.103 µM [falling, full curve, poor fit] |
| Cc1c(NC(=O)COC(=O)c2ccc(Br)o2)c(=O)n(-c2ccccc2)n1C | -10.3 | 1.46 µM [rising, single point] | 0.58 µM [rising, partial curve] |
| CCOC(=O)c1c(N2C(=O)C3CC(C)=C(C)CC3C2=O)sc(C)c1C (configuration not stated) | -2.58 | – | 2.06 µM [rising, partial curve] |
| Cc1nn(C(=O)N(C)C)c(C)c1CN1C(=O)c2ccccc2C1=O | 0.549 | – | – |
| Cc1nc(-n2[nH]c3c(c2=O)CCCC3)[nH]c(=O)c1Cc1ccccc1 | -27.5 | – | 20.6 µM [falling, single point] |
| CCOC(=O)c1ccc(-n2[nH]c(-c3ccccc3)cc2=O)cc1 | – | 0.461 µM [falling, full curve, poor fit] | 6.51 µM [falling, single point] |
| CCOC(=O)C(C)c1c(C(=O)c2ccc(C)nc2)c2ccccc2n1C (configuration not stated) | 6.2 | – | 6.51 µM [falling, single point] |
| CCOc1cc(N2CCOCC2)c(OCC)cc1NC(=O)CN1C(=O)NC2(CCCCC2C)C1=O (configuration not stated) | 3.21 | – | – |
| Cc1ccc(-c2nc(N)n(C(=O)Cc3ccccc3)n2)cc1 | -6.56 | – | 5.8 µM [rising, single point] |
| O=C(CCCOc1ccc(Cl)cc1)Nc1nncs1 | 41.1 | 3.66 µM [rising, partial curve] | 29.1 µM [rising, single point] |
| CC1CCCC(NC(=O)C2CCC(CNc3c(N4CCCCC4)c(=O)c3=O)CC2)C1C (configuration not stated) | -13.1 | – | – |
| Cc1cc(NC(=O)COC(=O)COc2ccc3c(c2)CCC3)no1 | -4.76 | – | 6.51 µM [falling, single point] |
| Cc1nc(NC(=O)c2ccccc2)sc1-c1csc(NCc2ccccc2)n1 | -39.9 | – | – |

Sorted by SMILES length (smallest number first): part of the list above

| Compound | cell number change [%] | AC50 [1] | AC50 [2] |
| --- | --- | --- | --- |
| CCOC(=O)c1ccc(-n2[nH]c(-c3ccccc3)cc2=O)cc1 | – | 0.461 µM [falling, full curve, poor fit] | 6.51 µM [falling, single point] |
| Cc1nc(NC(=O)c2ccccc2)sc1-c1csc(NCc2ccccc2)n1 | -39.9 | – | – |
| CCN(CC(=O)Nc1c(F)cccc1F)C(=O)CCCc1nc2ccccc2c(=O)[nH]1 | -5.05 | – | 29.1 µM [rising, single point] |

Following part:

| Compound | cell number change [%] | AC50 [1] | AC50 [2] |
| --- | --- | --- | --- |
| O=C(NCCC1CCCCN1S(=O)(=O)c1ccccc1)C(=O)NCc1ccccc1F (configuration not stated) | 3.28 | – | – |
| CCc1ccc(S(=O)(=O)Nc2cc3c(cc2N2CCCCC2)n(C)c(=O)c(=O)n3C)cc1 | 7.03 | – | – |
| CC1CCCCN1c1nnc(N)s1 (configuration not stated) | – | – | 0.103 µM [falling, full curve, poor fit] |
| COc1cc(NC(=O)C2CCCN(S(=O)(=O)c3cccc4nsnc34)C2)cc(OC)c1 (configuration not stated) | -30.8 | – | 32.6 µM [rising, single point] |
| Cc1nc(N2CCN(c3ccccn3)CC2)c2c(C)c(C(=O)Nc3c(C)cc(Br)cc3C)sc2n1 | 54 | 29.1 µM [rising, single point] | 2.91 µM [rising, single point] |
| O=C(CSc1ccc2c(c1)OCCO2)Nc1ncc(Cl)cc1Cl | 35.7 | – | – |
| COc1cc(CN2CCCC(CO)(Cc3ccccc3)C2)ccc1O (configuration not stated) | 15.2 | – | 29.1 µM [falling, single point] |
| CCCCCCOC(=O)Sc1nc2ccccc2o1 | -4.45 | – | 10.3 µM [falling, partial curve] |
| CC(=O)N(/N=C/c1cccc(C)c1)c1nc(-c2ccc(Br)cc2)cs1 | -19.2 | – | 3.26 µM [falling, full curve, poor fit] |
| O=C(Nc1cccnc1Cl)c1cccc(F)c1 | -38.5 | – | – |
| Cc1cccc2nc(-c3cccnc3)c(NCCC(C)C)n12 | -24.7 | – | 20.6 µM [falling, single point] |
| O=C(COC(=O)CCNS(=O)(=O)c1ccc2c(c1)OCCO2)NC1CCCc2ccccc21 (configuration not stated) | -5.86 | – | – |
| COc1cc(C(=O)NC(=S)Nc2cccc3nc(C)ccc23)cc(OC)c1OC | -23.9 | 1.16 µM [falling, full curve, poor fit] | – |
| Cc1ccc(OP(=O)(Nc2c(C)n(C)n(-c3ccccc3)c2=O)Oc2ccc(C)cc2)cc1 | -65.7 | 25.9 µM [falling, partial curve, poor fit] | 0.82 µM [falling, full curve, poor fit] |
| O=C(CSc1ccc2c(c1)OCCO2)NCc1ccco1 | -91.6 | 18.4 µM [falling, single point] | – |
| O=C(CN1CCc2ccccc2C1)Nc1cccc(S(=O)(=O)N2CCCC2)c1 | – | – | 0.731 µM [falling, single point] |
| NC(=O)c1ccc(C23CC4CC(CC(C4)C2)C3)o1 | -36.2 | 5.8 µM [falling, full curve] | 1.64 µM [falling, full curve] |
| CS(=O)(=O)N(CC(=O)Nc1ccc2c(c1)OCCO2)c1ccc2c(c1)OCO2 | – | 0.58 µM [rising, single point] | 0.58 µM [rising, single point] |
| Cc1ccc(S(=O)(=O)Nc2c(C(=O)O)[nH]c3ccccc23)cc1C | 8.33 | – | – |
| Cc1cc(C(=O)CSc2nnc(-c3ccco3)o2)c(C)n1CC1COc2ccccc2O1 (configuration not stated) | -16 | – | 0.00461 µM [rising, full curve, poor fit] |

Reference: PubChem BioAssay AID2685 (National Center for Advancing Translational Sciences (NCATS), 2010)
